Taken from: PubChem BioAssay AID504786 (Drosophila RNAi Screening Center, 2011)
Aim: 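Knock-downs reducing HIF reporter induction by the iron chelator DFO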 (primary screen). Cells: Drosophila S2 cells with a stable HIF luciferase reporter. Knock-down reagent: long dsRNA against Drosophila genes, about 0.2 µg dsRNA per well of a 384-well plate. Timing: three days of knock-down, then 20 h of DFO before reading. Conditions: desferrioxamine (DFO) at 100 µM, an iron chelator that mimics hypoxia, for 20 h. Read-out: 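Firefly luciferase driven by the mouse ldh-a hypoxia-response element, measured after 20 h of 100 µM DFO; z-scores per plate, higher means more signal lost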. Scale: z-score: higher = stronger loss of HIF reporter signal.
The deposit covers about 21,000 reagents; this is a random part of those that have a named target and a result. 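Primary screen; positive scores mean lost reporter signal, so the sign may be inverted from the usual convention.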 Reagents against one gene are numbered here. A plus sign joins genes that one reagent is predicted to hit. Reagent sequences are not shown.

no.	Target gene	reagent	z-score, replicate 1	z-score, replicate 2	z-score, replicate 3	z-score, replicate 4
1	Liprin-alpha (GeneID 249072)	1	-0.1	0		
2	CG31915 (GeneID 319025)	1	-0.2	-0.4		
3	Syx5 (GeneID 34966)	1	-0.5	1.7		
4	CG42326 (GeneID 35838)	1	-0.3	-0.6		
5	CG42326 (GeneID 35838)	2	-0.3	-0.5		
6	Ythdf (GeneID 42995)	1	0.2	-0.3		
7	Ythdf (GeneID 42995)	2	0	-0.8		
8	CG13070 (GeneID 39782)	1	-0.3	0.7		
9	BBS5 (GeneID 40600)	1	-0.2	-0.4		
10	CG17298 (GeneID 42529)	1	0.6	-0.3		
11	Fgop2 (GeneID 33971)	1	0.9	1.5		
12	nAChRalpha3 (GeneID 31767)	1	-0.4	-0.5		
13	Obp22a (GeneID 246672)	1	-0.6	0		
14	cnir (GeneID 33520)	1	-0.2	-0.4		
15	vih (GeneID 44118)	1	0	1.1		
16	CG12885 (GeneID 43308)	1	0	0.7		
17	Or94b (GeneID 42712)	1	-0.3	-0.5		
18	CG15879 (GeneID 38274)	1	-0.3	-0.7		
19	CG14974 (GeneID 50167)	1	0.1	-0.3		
20	ND-49 (GeneID 43798)	1	-0.1	-0.6		
21	CG7988 (GeneID 42180)	1	0.1	0		
22	CCKLR-17D1 (GeneID 32860)	1	-0.3	0.4		
23	CCKLR-17D1 (GeneID 32860)	2	-0.1	-0.6		
24	CCKLR-17D1 (GeneID 32860)	3	-0.6	0.3		
25	CG4074 + CG4186	1	-0.3	-0.4		
26	PPP4R2r (GeneID 31979)	1	-0.3	-0.9	-0.5	-0.7
27	CG12682 (GeneID 31415)	1	-0.2	-0.3		
28	CG6414 (GeneID 31352)	1	-0.2	-0.3		
29	Acp53C14b (GeneID 36873)	1	0	-0.3		
30	GstE7 (GeneID 37112)	1	-0.2	0.2		
31	PIP5K59B (GeneID 37633)	1	-0.2	-0.6		
32	PIP5K59B (GeneID 37633)	2	-0.2	-0.2		
33	CanB2 (GeneID 46456)	1	-0.7	-0.3		
34	Nazo (GeneID 40976)	1	-0.1	0.1		
35	CG1632 (GeneID 31763)	1	-0.4	-0.3		
36	CG1632 (GeneID 31763)	2	-0.3	-0.6		
37	CG4935 (GeneID 34955)	1	-0.4	-0.3		
38	Phyhd1 (GeneID 41275)	1	-0.5	-0.7		
39	Hsp26 (GeneID 39075)	1	-0.3	-0.3		
40	Dop2R (GeneID 33007)	1	-0.1	0		
41	Dop2R (GeneID 33007)	2	-0.1	0.3		
42	Trhn (GeneID 38121)	1	-0.2	0.5		
43	CG15404 (GeneID 33537)	1	-0.3	0		
44	SmD2 (GeneID 40781)	1	3.2	2.8		
45	TrpRS (GeneID 45399)	1	-0.1	0.3		
46	CG11145 (GeneID 35663)	1	-0.2	-0.6		
47	CG4483 (GeneID 39057)	1	-0.3	-0.1		
48	CG31161 (GeneID 326123)	1	-0.2	0.8		
49	Tak1 (GeneID 39659)	1	-0.2	-0.3		
50	Tak1 (GeneID 39659)	2	-0.1	-0.1		
51	Tak1 (GeneID 39659)	3	0.1	0.3		
52	CG12723 (GeneID 32271)	1	-0.2	-1		
53	Dscam4 (GeneID 2769008)	1	0.5	0.6		
54	Dscam4 (GeneID 2769008)	2	-0.3	0.2		
55	Dscam4 (GeneID 2769008)	3	0	0.5		
56	Dscam4 (GeneID 2769008)	4	1.8	2.1		
57	Dscam4 (GeneID 2769008)	5	-0.3	0.1		
58	numb (GeneID 34263)	1	-0.3	-0.3		
59	mRpL38 (GeneID 32375)	1	1.3	1.1		
60	5-HT2B (GeneID 41017)	1	-0.3	-0.5		
61	5-HT2B (GeneID 41017)	2	-0.4	-0.8		
62	Nrg (GeneID 31792)	1	-0.5	-0.3		
63	Nrg (GeneID 31792)	2	-0.3	-0.6		
64	CG11378 (GeneID 31060)	1	-0.4	-0.1		
65	Pp2C1 (GeneID 31404)	1	0	0.2		
66	CG18094 (GeneID 35232)	1	-0.3	-0.4		
67	Ir7b (GeneID 31690)	1	0	0.5		
68	CG15536 (GeneID 43610)	1	-0.5	-0.6	-0.8	-0.1
69	Pal1 (GeneID 36033)	1	-0.3	-0.3		
70	Crk (GeneID 43775)	1	-0.2	-0.1		
71	CG17930 (GeneID 41979)	1	-0.1	-0.6		
72	CG13085 (GeneID 35219)	1	-0.3	-0.5		
73	CG2790 (GeneID 37992)	1	-0.1	-0.1		
74	Polr1A (GeneID 36617)	1	-0.1	0.2		
75	CG4377 (GeneID 37489)	1	-0.3	0.1		
76	PMCA (GeneID 43787)	1	-0.4	-0.3		
77	PMCA (GeneID 43787)	2	-0.9	-1		
78	PMCA (GeneID 43787)	3	-0.5	-1.5		
79	dind (GeneID 42243)	1	-0.2	-0.4		
80	CG9107 (GeneID 33843)	1	0.5	0.7		
81	Fum1 (GeneID 31605)	1	-0.2	-0.5		
82	Awh (GeneID 38451)	1	-0.3	-0.6		
83	CG17005 (GeneID 34249)	1	-0.4	-0.6		

A portion from the list above, as a working copy:
no.	Target gene	reagent	z-score, replicate 1	z-score, replicate 2	z-score, replicate 3	z-score, replicate 4
54	Dscam4 (GeneID 2769008)	2	-0.3	0.2		
55	Dscam4 (GeneID 2769008)	3	0	0.5		
56	Dscam4 (GeneID 2769008)	4	1.8	2.1		
57	Dscam4 (GeneID 2769008)	5	-0.3	0.1		
58	numb (GeneID 34263)	1	-0.3	-0.3		
59	mRpL38 (GeneID 32375)	1	1.3	1.1		
60	5-HT2B (GeneID 41017)	1	-0.3	-0.5		
61	5-HT2B (GeneID 41017)	2	-0.4	-0.8		
